This passage reports NP40-soluble protein abundance results from the supplement of paper PMC6411743.

Sequences of proteins named here, by UniProt entry; tags and fusion partners are left off. A change or cut given only in a name is not applied to a line headed by its entry.
UniProt P15531, whole entry, looked up: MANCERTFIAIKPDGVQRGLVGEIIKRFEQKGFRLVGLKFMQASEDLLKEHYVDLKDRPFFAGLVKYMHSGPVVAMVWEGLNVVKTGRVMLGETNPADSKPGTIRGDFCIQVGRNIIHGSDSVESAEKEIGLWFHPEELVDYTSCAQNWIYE
UniProt P02795: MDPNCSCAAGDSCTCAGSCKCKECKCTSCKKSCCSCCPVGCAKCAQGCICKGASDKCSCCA
UniProt P10599: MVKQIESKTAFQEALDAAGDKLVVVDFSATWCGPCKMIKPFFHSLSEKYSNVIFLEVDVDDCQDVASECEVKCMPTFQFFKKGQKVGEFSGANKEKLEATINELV
UniProt P04818: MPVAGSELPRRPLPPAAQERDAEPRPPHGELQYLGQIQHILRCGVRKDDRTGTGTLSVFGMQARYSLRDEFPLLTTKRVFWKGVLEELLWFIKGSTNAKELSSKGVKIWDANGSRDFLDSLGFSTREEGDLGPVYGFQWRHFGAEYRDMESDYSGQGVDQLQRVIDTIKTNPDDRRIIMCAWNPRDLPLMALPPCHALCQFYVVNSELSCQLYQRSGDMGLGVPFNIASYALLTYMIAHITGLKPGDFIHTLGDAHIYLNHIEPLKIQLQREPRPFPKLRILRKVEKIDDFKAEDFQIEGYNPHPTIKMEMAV
UniProt P04899, whole entry: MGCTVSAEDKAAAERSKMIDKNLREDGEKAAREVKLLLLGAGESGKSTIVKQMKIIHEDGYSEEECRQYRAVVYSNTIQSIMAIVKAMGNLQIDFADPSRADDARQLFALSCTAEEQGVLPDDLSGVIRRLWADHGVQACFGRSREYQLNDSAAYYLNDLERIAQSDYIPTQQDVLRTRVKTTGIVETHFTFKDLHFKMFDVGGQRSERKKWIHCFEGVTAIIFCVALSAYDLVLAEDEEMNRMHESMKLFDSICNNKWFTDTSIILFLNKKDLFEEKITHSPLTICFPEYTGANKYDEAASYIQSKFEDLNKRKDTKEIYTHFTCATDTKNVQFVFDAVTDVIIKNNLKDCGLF
UniProt P09972: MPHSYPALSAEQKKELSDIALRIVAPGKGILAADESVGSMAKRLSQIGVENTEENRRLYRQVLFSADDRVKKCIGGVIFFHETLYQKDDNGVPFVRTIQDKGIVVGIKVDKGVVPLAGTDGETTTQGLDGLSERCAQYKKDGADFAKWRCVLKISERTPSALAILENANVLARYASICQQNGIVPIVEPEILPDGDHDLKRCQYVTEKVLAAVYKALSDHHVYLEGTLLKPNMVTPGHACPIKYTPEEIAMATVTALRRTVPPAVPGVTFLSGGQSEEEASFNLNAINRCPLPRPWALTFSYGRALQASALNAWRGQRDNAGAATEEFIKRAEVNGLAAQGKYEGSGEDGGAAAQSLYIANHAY
UniProt P00519, whole entry: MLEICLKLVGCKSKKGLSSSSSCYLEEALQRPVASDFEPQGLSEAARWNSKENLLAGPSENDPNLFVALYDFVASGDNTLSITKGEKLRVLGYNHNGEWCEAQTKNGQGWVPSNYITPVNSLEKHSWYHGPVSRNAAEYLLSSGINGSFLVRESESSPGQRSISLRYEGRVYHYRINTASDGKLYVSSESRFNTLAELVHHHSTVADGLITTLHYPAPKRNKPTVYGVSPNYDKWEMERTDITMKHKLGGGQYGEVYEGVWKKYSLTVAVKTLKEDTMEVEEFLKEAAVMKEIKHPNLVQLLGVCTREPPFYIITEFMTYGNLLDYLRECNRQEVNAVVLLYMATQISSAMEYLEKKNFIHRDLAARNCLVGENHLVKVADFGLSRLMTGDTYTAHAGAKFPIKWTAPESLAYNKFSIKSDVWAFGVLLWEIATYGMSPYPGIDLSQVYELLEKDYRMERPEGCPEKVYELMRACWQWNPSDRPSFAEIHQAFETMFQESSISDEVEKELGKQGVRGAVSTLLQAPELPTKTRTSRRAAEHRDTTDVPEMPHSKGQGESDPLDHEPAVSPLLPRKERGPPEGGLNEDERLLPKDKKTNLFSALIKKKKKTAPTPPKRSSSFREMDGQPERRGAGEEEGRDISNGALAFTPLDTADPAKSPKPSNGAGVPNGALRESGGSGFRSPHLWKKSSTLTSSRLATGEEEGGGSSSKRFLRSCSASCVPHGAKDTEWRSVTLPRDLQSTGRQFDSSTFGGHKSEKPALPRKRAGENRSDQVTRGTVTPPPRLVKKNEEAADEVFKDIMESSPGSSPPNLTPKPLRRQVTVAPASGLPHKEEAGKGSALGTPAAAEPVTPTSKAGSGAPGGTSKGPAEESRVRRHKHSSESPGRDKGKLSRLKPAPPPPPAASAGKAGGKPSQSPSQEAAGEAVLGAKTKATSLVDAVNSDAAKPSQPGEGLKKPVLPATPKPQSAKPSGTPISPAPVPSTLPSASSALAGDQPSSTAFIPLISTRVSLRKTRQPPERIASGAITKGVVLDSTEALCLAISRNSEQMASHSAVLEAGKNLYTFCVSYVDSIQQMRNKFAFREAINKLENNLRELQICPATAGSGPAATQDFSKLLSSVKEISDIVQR
UniProt P13489: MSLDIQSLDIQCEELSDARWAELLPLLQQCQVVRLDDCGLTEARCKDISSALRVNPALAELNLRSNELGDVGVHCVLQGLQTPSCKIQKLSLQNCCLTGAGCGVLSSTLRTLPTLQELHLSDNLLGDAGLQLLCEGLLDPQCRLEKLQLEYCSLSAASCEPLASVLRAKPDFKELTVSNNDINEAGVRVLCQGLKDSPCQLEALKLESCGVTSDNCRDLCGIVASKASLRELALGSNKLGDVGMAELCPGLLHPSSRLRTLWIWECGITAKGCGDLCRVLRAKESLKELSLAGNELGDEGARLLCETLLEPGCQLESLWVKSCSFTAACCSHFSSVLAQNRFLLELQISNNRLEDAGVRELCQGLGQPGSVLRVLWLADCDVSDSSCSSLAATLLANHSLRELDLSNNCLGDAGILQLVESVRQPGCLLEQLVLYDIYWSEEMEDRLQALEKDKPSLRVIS
UniProt O95985: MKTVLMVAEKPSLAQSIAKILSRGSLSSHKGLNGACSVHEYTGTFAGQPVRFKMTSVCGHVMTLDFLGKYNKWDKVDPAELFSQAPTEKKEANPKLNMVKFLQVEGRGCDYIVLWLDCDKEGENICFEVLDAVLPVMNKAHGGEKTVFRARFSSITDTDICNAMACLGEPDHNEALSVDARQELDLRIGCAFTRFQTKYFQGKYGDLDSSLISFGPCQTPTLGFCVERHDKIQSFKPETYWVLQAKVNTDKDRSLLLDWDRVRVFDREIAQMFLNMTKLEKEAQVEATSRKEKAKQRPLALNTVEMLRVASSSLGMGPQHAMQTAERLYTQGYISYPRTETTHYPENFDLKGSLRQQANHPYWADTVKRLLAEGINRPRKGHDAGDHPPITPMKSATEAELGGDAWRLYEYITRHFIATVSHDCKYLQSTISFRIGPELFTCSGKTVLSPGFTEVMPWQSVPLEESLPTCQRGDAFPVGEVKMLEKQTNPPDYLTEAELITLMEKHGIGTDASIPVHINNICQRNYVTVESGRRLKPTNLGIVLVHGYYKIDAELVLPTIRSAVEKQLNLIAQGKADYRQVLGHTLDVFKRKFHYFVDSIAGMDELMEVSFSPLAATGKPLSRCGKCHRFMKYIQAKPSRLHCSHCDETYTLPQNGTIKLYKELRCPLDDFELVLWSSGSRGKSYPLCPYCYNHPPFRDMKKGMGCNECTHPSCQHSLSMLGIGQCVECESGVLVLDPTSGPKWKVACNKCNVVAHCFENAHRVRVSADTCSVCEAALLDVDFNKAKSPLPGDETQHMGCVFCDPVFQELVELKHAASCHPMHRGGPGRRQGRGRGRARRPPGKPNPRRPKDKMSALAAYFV
UniProt P14316: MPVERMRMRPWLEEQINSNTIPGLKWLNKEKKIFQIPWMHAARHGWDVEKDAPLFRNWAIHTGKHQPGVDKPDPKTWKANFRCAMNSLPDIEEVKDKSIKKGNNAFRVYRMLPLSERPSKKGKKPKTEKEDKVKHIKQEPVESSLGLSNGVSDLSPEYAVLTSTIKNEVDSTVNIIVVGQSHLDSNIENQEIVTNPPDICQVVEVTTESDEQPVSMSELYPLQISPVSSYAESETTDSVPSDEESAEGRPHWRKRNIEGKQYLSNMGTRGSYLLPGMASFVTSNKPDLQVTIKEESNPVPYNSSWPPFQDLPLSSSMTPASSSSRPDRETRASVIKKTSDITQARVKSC
UniProt P16278: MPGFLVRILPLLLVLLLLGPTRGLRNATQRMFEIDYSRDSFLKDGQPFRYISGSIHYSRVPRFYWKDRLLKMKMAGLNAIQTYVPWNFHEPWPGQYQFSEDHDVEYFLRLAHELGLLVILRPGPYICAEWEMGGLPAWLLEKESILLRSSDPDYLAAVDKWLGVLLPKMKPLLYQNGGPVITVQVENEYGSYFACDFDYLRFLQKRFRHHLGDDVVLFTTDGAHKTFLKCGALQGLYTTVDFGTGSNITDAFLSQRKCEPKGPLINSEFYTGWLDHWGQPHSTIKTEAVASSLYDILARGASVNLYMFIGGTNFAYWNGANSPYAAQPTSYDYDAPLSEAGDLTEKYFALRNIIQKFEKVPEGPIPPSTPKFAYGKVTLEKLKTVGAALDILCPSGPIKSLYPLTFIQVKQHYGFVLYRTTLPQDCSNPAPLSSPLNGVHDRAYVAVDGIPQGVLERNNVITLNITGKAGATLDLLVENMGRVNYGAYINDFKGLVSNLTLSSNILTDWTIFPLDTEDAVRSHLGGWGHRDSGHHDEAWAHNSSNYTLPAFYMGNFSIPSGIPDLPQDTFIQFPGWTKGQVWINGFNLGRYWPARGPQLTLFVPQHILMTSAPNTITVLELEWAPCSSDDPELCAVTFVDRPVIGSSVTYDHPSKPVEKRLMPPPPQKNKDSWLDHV
UniProt P05556, whole entry: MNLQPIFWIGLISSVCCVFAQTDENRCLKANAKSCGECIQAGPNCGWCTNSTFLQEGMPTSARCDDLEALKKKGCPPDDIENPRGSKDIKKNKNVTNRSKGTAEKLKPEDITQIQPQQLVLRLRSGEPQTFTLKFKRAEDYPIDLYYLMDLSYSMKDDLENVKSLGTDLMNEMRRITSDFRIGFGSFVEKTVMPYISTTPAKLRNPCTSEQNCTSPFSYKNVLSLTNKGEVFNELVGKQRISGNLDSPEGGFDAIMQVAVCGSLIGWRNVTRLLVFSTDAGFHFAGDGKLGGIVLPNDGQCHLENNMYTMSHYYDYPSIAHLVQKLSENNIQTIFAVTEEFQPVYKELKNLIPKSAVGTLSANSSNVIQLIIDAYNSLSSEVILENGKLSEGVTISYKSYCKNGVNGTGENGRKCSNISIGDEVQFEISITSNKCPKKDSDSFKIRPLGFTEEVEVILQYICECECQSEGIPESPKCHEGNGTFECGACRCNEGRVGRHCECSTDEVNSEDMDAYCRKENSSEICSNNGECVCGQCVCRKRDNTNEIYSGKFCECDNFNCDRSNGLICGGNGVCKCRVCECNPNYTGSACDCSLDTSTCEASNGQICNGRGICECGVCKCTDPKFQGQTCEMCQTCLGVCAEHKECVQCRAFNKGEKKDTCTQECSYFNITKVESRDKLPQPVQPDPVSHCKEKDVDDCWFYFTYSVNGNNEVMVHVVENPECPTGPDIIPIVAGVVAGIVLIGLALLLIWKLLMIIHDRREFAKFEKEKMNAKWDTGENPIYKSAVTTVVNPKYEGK
UniProt P00558: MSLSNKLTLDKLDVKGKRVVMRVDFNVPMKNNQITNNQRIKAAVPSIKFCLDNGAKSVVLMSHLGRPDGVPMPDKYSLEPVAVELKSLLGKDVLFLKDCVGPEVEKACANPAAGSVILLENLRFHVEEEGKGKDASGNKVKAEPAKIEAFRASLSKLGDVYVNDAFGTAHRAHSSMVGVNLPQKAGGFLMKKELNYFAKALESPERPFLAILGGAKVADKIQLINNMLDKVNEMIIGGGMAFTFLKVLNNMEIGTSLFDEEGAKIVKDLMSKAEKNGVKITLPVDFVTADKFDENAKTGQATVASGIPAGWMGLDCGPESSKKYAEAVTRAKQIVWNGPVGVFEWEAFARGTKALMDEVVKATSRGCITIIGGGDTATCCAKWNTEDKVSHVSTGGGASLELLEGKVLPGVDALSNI
UniProt P10914: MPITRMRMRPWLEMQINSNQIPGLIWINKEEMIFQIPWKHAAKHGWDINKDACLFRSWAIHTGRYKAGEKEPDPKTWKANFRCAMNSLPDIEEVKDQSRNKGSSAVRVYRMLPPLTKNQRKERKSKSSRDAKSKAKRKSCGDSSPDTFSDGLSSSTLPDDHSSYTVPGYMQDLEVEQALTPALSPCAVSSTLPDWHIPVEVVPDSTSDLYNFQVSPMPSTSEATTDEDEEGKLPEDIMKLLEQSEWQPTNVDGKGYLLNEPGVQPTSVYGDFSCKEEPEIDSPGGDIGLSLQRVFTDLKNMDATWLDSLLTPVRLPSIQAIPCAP
UniProt P0CG13, whole entry: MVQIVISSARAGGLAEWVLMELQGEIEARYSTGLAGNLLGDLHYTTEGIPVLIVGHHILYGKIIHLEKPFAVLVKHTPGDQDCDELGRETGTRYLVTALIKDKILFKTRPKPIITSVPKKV

± gives the standard deviation of the averaged measurements. The list shows a part of the results, in another mix than the full data. Most values lie at the level of the controls, where differences are scatter.

Compound in this experiment: Nc1ncnc2c1ncn2[C@@H]1O[C@H](COP(=O)(O)OP(=O)(O)OP(=O)(O)O)[C@@H](O)[C@H]1O [adenosine triphosphate]
In words: NP40-soluble protein abundance relative to vehicle (solubility fold change) (ratio); higher = more soluble protein in presence of ATP. An outline of the steps:
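Eight concentrations, 0.1 to 10 mM, were tested on Jurkat crude lysate for 10 min at room temperature and then 3 min at 37 °C, in three independent experiments. The lysate was solubilised with 0.8% NP40 and benzonase, ultracentrifuged, and the supernatant TMT-labelled for LC-MS/MS. Each value is the fold change against the detergent-processed vehicle in its own replicate, from vsn-normalised intensities.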

Turning to ALAD (UniProt P13716), the NP40-soluble protein abundance was 1 ± 0.033 (concentration: 0.1mM) and 1.03 ± 0.031 (concentration: 0.5mM).

As to “P15531-2|P22392-2|Q32Q12 (UniProt Q32Q12+P22392+P15531)”, the NP40-soluble protein abundance by setting is: (concentration: 0.1mM) 0.942 ± 0.03; (concentration: 0.5mM) 0.947 ± 0.023.

As for MT2A (UniProt P02795), the NP40-soluble protein abundance came to 0.923 ± 0.025 (concentration: 0.1mM) and 0.918 ± 0.039 (concentration: 0.5mM).

Take UniProt P14324-2: the NP40-soluble protein abundance is, setting by setting: (concentration: 0.1mM) 0.966 ± 0.044; (concentration: 0.5mM) 0.992 ± 0.036.

For UniProt P10155, the NP40-soluble protein abundance runs as follows: (concentration: 0.1mM) 1.02 ± 0.055; (concentration: 0.5mM) 1.02 ± 0.045.

Regarding TXN (UniProt P10599), the NP40-soluble protein abundance runs as follows: (concentration: 0.1mM) 0.992 ± 0.044; (concentration: 0.5mM) 0.983 ± 0.036.

As for HMGB1 (UniProt P09429), the NP40-soluble protein abundance reads like this: (concentration: 0.1mM) 0.902 ± 0.12; (concentration: 0.5mM) 0.875 ± 0.15.

Take GTF2F2 (UniProt P13984): the NP40-soluble protein abundance reads like this: (concentration: 0.1mM) 0.998 ± 0.025; (concentration: 0.5mM) 1.04 ± 0.05.

On to MGMT (UniProt P16455), for which the NP40-soluble protein abundance (concentration: 0.1mM) came to 0.941 ± 0.045 and the NP40-soluble protein abundance (concentration: 0.5mM) worked out at 0.897 ± 0.12.

Consider ITGA5 (UniProt P08648), for which the NP40-soluble protein abundance reads like this: (concentration: 0.1mM) 0.957 ± 0.034; (concentration: 0.5mM) 0.893 ± 0.064.

In the case of TYMS (UniProt P04818), the NP40-soluble protein abundance was determined as 1.03 ± 0.056 (concentration: 0.1mM) and 1 ± 0.053 (concentration: 0.5mM).

For the target ANXA5 (UniProt P08758), the NP40-soluble protein abundance is, setting by setting: (concentration: 0.1mM) 0.948 ± 0.038; (concentration: 0.5mM) 0.927 ± 0.029.

In the case of HIST1H1E (UniProt P10412), the NP40-soluble protein abundance was 1.03 ± 0.14 (concentration: 0.1mM) and 1.01 ± 0.17 (concentration: 0.5mM).

As to GNAI2 (UniProt P04899), the NP40-soluble protein abundance was determined as 1.11 ± 0.097 (concentration: 0.1mM) and 1.1 ± 0.14 (concentration: 0.5mM).

Regarding UniProt P15882 and related entries, the NP40-soluble protein abundance reads like this: (concentration: 0.1mM) 1.03 ± 0.022; (concentration: 0.5mM) 0.969 ± 0.061.

For the target TPR (UniProt P12270), the NP40-soluble protein abundance runs as follows: (concentration: 0.1mM) 0.992 ± 0.023; (concentration: 0.5mM) 1 ± 0.063.

Turning to CREB1 (UniProt P16220), the NP40-soluble protein abundance reads like this: (concentration: 0.1mM) 0.983 ± 0.033; (concentration: 0.5mM) 0.9638 ± 0.0083.

On to UniProt P06396-2, for which the NP40-soluble protein abundance by setting is: (concentration: 0.1mM) 0.976 ± 0.032; (concentration: 0.5mM) 1.25 ± 0.048.

With PARP1 (UniProt P09874), the NP40-soluble protein abundance (concentration: 0.1mM) was 1.04 ± 0.072 and the NP40-soluble protein abundance (concentration: 0.5mM) is 1.1 ± 0.057.

With LATS1 (UniProt O95835), the NP40-soluble protein abundance is, setting by setting: (concentration: 0.1mM) 1.08 ± 0.071; (concentration: 0.5mM) 1.11 ± 0.045.

“P0DN79 and related entries (UniProt P35520+P0DN79)”: the NP40-soluble protein abundance by setting is: (concentration: 0.1mM) 0.984 ± 0.043; (concentration: 0.5mM) 0.956 ± 0.074.

As to ALDOC (UniProt P09972), the NP40-soluble protein abundance is, setting by setting: (concentration: 0.1mM) 1.01 ± 0.048; (concentration: 0.5mM) 1.04 ± 0.07.

Turning to UniProt P07355 and related entries, the NP40-soluble protein abundance is 1.01 ± 0.018 (concentration: 0.1mM) and 0.985 ± 0.038 (concentration: 0.5mM).

Turning to H1F0 (UniProt P07305), the NP40-soluble protein abundance runs as follows: (concentration: 0.1mM) 0.981 ± 0.039; (concentration: 0.5mM) 0.958 ± 0.03.

As to UniProt P00519-2|P00519, the NP40-soluble protein abundance is, setting by setting: (concentration: 0.1mM) 1.03 ± 0.043; (concentration: 0.5mM) 1.04 ± 0.052.

On to GNAI3 (UniProt P08754), for which the NP40-soluble protein abundance amounted to 0.978 ± 0.049 (concentration: 0.1mM) and 0.887 ± 0.041 (concentration: 0.5mM).

As to TSPAN13 (UniProt O95857), the NP40-soluble protein abundance (concentration: 0.1mM) is 0.867 ± 0.068 and the NP40-soluble protein abundance (concentration: 0.5mM) was found to be 0.814 ± 0.11.

Turning to ZBTB48 (UniProt P10074), the NP40-soluble protein abundance is, setting by setting: (concentration: 0.1mM) 1.01 ± 0.048; (concentration: 0.5mM) 1.02 ± 0.042.

Consider RNH1 (UniProt P13489), for which the NP40-soluble protein abundance (concentration: 0.1mM) was determined as 1.05 ± 0.085 and the NP40-soluble protein abundance (concentration: 0.5mM) stood at 1.01 ± 0.079.

On to UniProt O95985 and related entries, for which the NP40-soluble protein abundance runs as follows: (concentration: 0.1mM) 1.08 ± 0.038; (concentration: 0.5mM) 0.959 ± 0.051.

As to UniProt P14316 and related entries, the NP40-soluble protein abundance (concentration: 0.1mM) amounted to 0.9785 ± 0.008 and the NP40-soluble protein abundance (concentration: 0.5mM) worked out at 1.04 ± 0.058.

Take ISG15 (UniProt P05161): the NP40-soluble protein abundance was 1.02 ± 0.048 (concentration: 0.1mM) and 1.01 ± 0.051 (concentration: 0.5mM).

HIST1H1C (UniProt P16403): the NP40-soluble protein abundance (concentration: 0.1mM) is 1.02 ± 0.094 and the NP40-soluble protein abundance (concentration: 0.5mM) is 1.01 ± 0.063.

PRKAR1A (UniProt P10644): the NP40-soluble protein abundance runs as follows: (concentration: 0.1mM) 1.01 ± 0.026; (concentration: 0.5mM) 0.988 ± 0.066.

Take CRYZL1 (UniProt O95825): the NP40-soluble protein abundance is 1.05 ± 0.06 (concentration: 0.1mM) and 1.05 ± 0.066 (concentration: 0.5mM).

With UniProt P14209 and related entries, the NP40-soluble protein abundance runs as follows: (concentration: 0.1mM) 0.932 ± 0.11; (concentration: 0.5mM) 0.908 ± 0.14.

In the case of “UniProt P15529-2|P15529-3|P15529-4|P15529-5|P15529-6|P15529-7|P15529-16”, the NP40-soluble protein abundance was 0.983 ± 0.036 (concentration: 0.1mM) and 0.957 ± 0.041 (concentration: 0.5mM).

Consider UniProt P16278 and related entries, for which the NP40-soluble protein abundance came to 0.983 ± 0.021 (concentration: 0.1mM) and 0.963 ± 0.064 (concentration: 0.5mM).

UniProt P09564: the NP40-soluble protein abundance was 1 ± 0.06 (concentration: 0.1mM) and 0.976 ± 0.055 (concentration: 0.5mM).

Turning to ITGB1 (UniProt P05556), the NP40-soluble protein abundance reads like this: (concentration: 0.1mM) 0.9434 ± 0.0085; (concentration: 0.5mM) 0.914 ± 0.021.

ATXN1L (UniProt P0C7T5): the NP40-soluble protein abundance reads like this: (concentration: 0.1mM) 0.954 ± 0.064; (concentration: 0.5mM) 0.981 ± 0.042.

In the case of UniProt P05026 and related entries, the NP40-soluble protein abundance is, setting by setting: (concentration: 0.1mM) 0.963 ± 0.028; (concentration: 0.5mM) 0.946 ± 0.18.

Regarding LDHB (UniProt P07195), the NP40-soluble protein abundance turned out to be 0.893 ± 0.2 (concentration: 0.1mM) and 1.1 ± 0.085 (concentration: 0.5mM).

For the target UniProt P04035 and related entries, the NP40-soluble protein abundance is 1.03 ± 0.082 (concentration: 0.1mM) and 1.03 ± 0.048 (concentration: 0.5mM).

Consider ARSB (UniProt P15848), for which the NP40-soluble protein abundance by setting is: (concentration: 0.1mM) 0.916 ± 0.092; (concentration: 0.5mM) 0.884 ± 0.054.

In the case of BPGM (UniProt P07738), the NP40-soluble protein abundance is, setting by setting: (concentration: 0.1mM) 1.02 ± 0.037; (concentration: 0.5mM) 0.992 ± 0.024.

Take IFNGR1 (UniProt P15260): the NP40-soluble protein abundance runs as follows: (concentration: 0.1mM) 0.94 ± 0.035; (concentration: 0.5mM) 0.945 ± 0.026.

Regarding PGK1 (UniProt P00558), the NP40-soluble protein abundance is 1 ± 0.03 (concentration: 0.1mM) and 0.994 ± 0.031 (concentration: 0.5mM).

As for UniProt P10914, the NP40-soluble protein abundance amounted to 0.915 ± 0.024 (concentration: 0.1mM) and 0.9397 ± 0.0037 (concentration: 0.5mM).

Take PLEK (UniProt P08567): the NP40-soluble protein abundance runs as follows: (concentration: 0.1mM) 1.07 ± 0.063; (concentration: 0.5mM) 1.08 ± 0.019.

As to UniProt P09497-2, the NP40-soluble protein abundance runs as follows: (concentration: 0.1mM) 0.929 ± 0.076; (concentration: 0.5mM) 0.931 ± 0.071.

Consider UniProt P01116-2|P01116, for which the NP40-soluble protein abundance (concentration: 0.1mM) came to 0.979 ± 0.062 and the NP40-soluble protein abundance (concentration: 0.5mM) turned out to be 0.973 ± 0.059.

With H2AFX (UniProt P16104), the NP40-soluble protein abundance reads like this: (concentration: 0.1mM) 0.845 ± 0.15; (concentration: 0.5mM) 0.82 ± 0.22.

Turning to RPLP0 (UniProt P05388), the NP40-soluble protein abundance worked out at 0.92 ± 0.038 (concentration: 0.1mM) and 0.911 ± 0.074 (concentration: 0.5mM).

“UniProt P11171-2|P11171 and related entries”: the NP40-soluble protein abundance is 1.02 ± 0.037 (concentration: 0.1mM) and 1.02 ± 0.055 (concentration: 0.5mM).

Consider UROD (UniProt P06132), for which the NP40-soluble protein abundance runs as follows: (concentration: 0.1mM) 1.02 ± 0.026; (concentration: 0.5mM) 1.01 ± 0.052.

For the target UniProt P09914 and related entries, the NP40-soluble protein abundance came to 0.961 ± 0.076 (concentration: 0.1mM) and 1.02 ± 0.092 (concentration: 0.5mM).

Take “P0CG12 and related entries (UniProt P0CG13)”: the NP40-soluble protein abundance turned out to be 0.959 ± 0.047 (concentration: 0.1mM) and 0.884 ± 0.072 (concentration: 0.5mM).

Regarding SRF (UniProt P11831), the NP40-soluble protein abundance (concentration: 0.1mM) is 0.962 ± 0.057 and the NP40-soluble protein abundance (concentration: 0.5mM) came out at 0.976 ± 0.037.

On to UniProt P08236 and related entries, for which the NP40-soluble protein abundance is, setting by setting: (concentration: 0.1mM) 0.998 ± 0.045; (concentration: 0.5mM) 0.986 ± 0.048.
